Results of single-concentration screens

Protein sequences, listed by entry. Tags and fused reporters are not part of them. Residues count along the entry.
UniProt Q8IDJ8, 1-583: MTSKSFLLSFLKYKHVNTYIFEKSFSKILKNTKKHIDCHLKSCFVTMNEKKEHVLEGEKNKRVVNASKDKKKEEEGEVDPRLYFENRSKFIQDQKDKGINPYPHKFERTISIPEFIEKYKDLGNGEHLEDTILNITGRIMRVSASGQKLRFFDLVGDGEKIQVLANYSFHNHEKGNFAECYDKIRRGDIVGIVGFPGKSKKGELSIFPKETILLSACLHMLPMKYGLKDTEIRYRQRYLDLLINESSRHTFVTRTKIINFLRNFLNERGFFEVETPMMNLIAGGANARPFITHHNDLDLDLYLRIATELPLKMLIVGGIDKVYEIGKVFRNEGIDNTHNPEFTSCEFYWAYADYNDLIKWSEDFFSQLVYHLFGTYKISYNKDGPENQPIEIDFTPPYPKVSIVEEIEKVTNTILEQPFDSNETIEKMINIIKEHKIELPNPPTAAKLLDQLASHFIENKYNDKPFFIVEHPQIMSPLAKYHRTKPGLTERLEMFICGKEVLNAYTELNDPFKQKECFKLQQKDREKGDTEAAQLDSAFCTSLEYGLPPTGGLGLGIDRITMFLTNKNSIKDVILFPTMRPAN
UniProt Q4DA54, 1-478: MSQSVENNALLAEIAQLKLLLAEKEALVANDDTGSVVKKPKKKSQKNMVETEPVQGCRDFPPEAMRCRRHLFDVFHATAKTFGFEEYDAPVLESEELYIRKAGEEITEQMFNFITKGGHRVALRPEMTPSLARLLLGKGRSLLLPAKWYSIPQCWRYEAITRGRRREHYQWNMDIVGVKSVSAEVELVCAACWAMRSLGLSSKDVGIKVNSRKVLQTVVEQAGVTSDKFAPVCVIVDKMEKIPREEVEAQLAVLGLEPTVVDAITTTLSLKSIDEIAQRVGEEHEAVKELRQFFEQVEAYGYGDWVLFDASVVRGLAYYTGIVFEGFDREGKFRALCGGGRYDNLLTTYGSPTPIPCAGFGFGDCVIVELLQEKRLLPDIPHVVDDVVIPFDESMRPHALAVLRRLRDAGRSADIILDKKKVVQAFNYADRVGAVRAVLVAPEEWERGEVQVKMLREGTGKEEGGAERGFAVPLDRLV
UniProt I6X8D2, whole entry: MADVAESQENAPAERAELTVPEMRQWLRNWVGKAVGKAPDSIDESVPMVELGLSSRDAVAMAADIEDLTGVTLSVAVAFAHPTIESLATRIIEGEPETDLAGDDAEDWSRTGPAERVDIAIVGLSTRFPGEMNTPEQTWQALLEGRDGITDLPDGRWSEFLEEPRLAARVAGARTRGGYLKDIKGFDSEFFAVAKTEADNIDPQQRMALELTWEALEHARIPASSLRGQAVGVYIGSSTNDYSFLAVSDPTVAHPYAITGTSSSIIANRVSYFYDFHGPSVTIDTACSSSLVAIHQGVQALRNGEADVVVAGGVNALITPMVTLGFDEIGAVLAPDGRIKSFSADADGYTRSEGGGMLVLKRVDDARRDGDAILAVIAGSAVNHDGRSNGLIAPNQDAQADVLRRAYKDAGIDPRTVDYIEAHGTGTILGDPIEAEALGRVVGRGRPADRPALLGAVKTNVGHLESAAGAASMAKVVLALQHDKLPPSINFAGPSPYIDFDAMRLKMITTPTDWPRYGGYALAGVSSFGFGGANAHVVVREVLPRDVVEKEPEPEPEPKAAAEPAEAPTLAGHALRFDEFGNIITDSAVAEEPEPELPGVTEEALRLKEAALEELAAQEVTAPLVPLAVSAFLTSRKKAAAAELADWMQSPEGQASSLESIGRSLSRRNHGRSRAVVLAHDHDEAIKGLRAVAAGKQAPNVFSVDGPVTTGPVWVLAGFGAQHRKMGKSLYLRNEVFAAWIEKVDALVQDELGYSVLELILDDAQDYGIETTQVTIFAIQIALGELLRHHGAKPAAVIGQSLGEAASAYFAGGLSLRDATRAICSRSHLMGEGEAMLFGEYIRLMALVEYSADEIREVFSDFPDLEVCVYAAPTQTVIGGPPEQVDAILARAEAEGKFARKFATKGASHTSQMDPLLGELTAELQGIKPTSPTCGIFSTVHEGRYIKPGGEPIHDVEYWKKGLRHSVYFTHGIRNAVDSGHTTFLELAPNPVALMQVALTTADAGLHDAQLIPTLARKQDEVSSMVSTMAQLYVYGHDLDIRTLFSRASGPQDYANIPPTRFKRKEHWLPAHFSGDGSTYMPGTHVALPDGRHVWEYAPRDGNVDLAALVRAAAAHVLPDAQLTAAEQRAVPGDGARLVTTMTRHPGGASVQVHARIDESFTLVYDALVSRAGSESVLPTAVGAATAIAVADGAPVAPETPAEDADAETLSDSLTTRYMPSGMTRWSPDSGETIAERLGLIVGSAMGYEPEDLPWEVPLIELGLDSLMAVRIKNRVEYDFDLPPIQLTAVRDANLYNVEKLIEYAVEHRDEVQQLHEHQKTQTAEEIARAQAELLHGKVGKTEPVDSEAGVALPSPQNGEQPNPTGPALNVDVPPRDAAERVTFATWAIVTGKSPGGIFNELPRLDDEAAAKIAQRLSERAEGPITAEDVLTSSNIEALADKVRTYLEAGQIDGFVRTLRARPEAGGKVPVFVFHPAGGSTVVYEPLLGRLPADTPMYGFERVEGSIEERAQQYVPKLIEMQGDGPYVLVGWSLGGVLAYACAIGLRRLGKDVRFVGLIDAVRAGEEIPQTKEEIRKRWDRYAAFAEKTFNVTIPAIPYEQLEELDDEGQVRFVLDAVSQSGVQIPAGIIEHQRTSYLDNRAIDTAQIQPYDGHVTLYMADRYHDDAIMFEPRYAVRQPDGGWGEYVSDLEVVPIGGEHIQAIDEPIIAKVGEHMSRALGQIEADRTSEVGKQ

PfKRS1: 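Enzyme assay of the cytosolic lysyl-tRNA synthetase in 384-well plates, read by luminescence. Target: Lysine-tRNA ligase, Plasmodium falciparum 3D7 (UniProt Q8IDJ8). Tested at 30 µM. Higher reads as stronger inhibition, judged from the few compounds that gave an IC50. Size under these conditions: about 69,000 compounds, about 49 of them at 50% or above in at least one test.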
TcHisRS: 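Histidine-tRNA ligase, Trypanosoma cruzi CL Brener (UniProt Q4DA54). Enzyme assay of histidyl-tRNA synthetase; the read-out is not stated. Concentration: 30 µM. Higher reads as stronger inhibition (inferred: compounds with an IC50 in retests scored well above the rest). Size under these conditions: about 69,000 compounds, about 31 of them at 50% or above in at least one test.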
Leishmania in macrophages: 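Cell assay of Leishmania donovani living inside macrophages; the read-out is not stated. Compounds at 30 µM. The record gives no direction; compounds that gave an IC50 in retests scored well above the rest, so higher reads as stronger inhibition. Size under these conditions: about 69,000 compounds, about 1,000 of them at 50% or above in at least one test.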
Pks13 thioesterase: 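Polyketide synthase Pks13, Mycobacterium tuberculosis (UniProt I6X8D2). Enzyme assay of the thioesterase domain of polyketide synthase 13; the read-out is not stated. Tested at 30 µM. The record gives no direction; the compounds picked for IC50 retests had high values, so higher reads as stronger inhibition. Of about 67,000 compounds tested this way, about 300 (0.46%) reached 50% or more in at least one test.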

Each number is a percent effect as filed. How 0% and 100% were set is not recorded. Most values in the screen are low, and negative values occur. This is an unselected part of the compounds tested. Two or more numbers in one place are separate tests of the same structure; such repeats can differ widely. A dash means the value is not listed here; it may have been measured.

| # | SMILES | PfKRS1 | TcHisRS | Leishmania in macrophages | Pks13 thioesterase |
|---|---|---|---|---|---|
| 1 | `CSc1ncccc1C(=O)N1C[C@H]2CC[C@@H]1CN(c1cnccn1)C2` | 3.677 | 5.858 | - | -2.082 |
| 2 | `CCn1nc(C)cc1C(=O)OCC1CC(=O)N(Cc2ccccc2)C1` (stereo not shown) | 2.843 | 0.8929 | 16.12 | -7.85 |
| 3 | `CC(C)c1noc(CCCC(=O)NC2CCS(=O)(=O)C2)n1` (stereo not shown) | 6.185 | -0.3774 | 18.56 | -9.333 |
| 4 | `Cc1ccc(CN2CCC3(CC2)C(=O)N(CC(C)C)CCN3C)s1.O=C(O)C(F)(F)F.O=C(O)C(F)(F)F` | - | - | -3.474 | - |
| 5 | `O=C(NCC1CC1)C1CN(C(=O)c2cnccn2)CC12CCOCC2` (stereo not shown) | 3.988 | 6.452 | -13.75 and 6.854 | -2.876 |
| 6 | `CN1CC2(CCN(C(=O)c3ccc(=O)n(C)c3)CC2)CC1=O` | 0.7988 | 2.01 | 1.652 | -10.91 |
| 7 | `CCN(Cc1ccoc1)C(=O)NC1CCN(CC=C(C)C)CC1` | -2.446 | 3.896 | -0.7182 | -28.32 |
| 8 | `COc1ccc2c(c1)c(C(=O)Nc1nnn[nH]1)cn2C(C)C` | -3.623 | 7.292 | -1.361 | -32.4 |
| 9 | `Cc1cccc(CN2CCOCC3(CCN(C4CCOCC4)C3)C2)n1.O=C(O)C(F)(F)F.O=C(O)C(F)(F)F.O=C(O)C(F)(F)F` (stereo not shown) | - | - | 27.07 | - |
| 10 | `O=C(O)C(F)(F)F.[H][C@@]12CN(C(=O)c3ccccc3)CCO[C@]1([H])CN(c1ccc(C)nn1)C2` | - | - | 3.621 | - |
| 11 | `Cc1cnn(CC2CCCCN2CCCS(=O)(=O)N(C)C)c1` (stereo not shown) | -0.1677 | 2.26 | 21.86 | -7.319 |
| 12 | `CC1(C)CCN(S(=O)(=O)N2CCCC(c3cccc(C(=O)O)c3)C2)CC1` (stereo not shown) | -2.102 | -4.651 | 13.52 | -14.7 |
| 13 | `COc1ccccc1N1CCN(C(=O)CSCC2CC2)C(C)C1` (stereo not shown) | -4.4 | -9.662 | -23.1 | -9.599 |
| 14 | `CCN1CC2(CC1=O)CN(Cc1ccncc1)CCN(C(=O)C(C)C)C2` (stereo not shown) | -1.78 | 0 | - | 13.92 |
| 15 | `N#Cc1cccc(C(=O)N2C[C@H]3CC[C@@H]2CN(C(=O)C2CCC2)C3)c1` | 1.213 | -4.523 | - | -6.173 |
| 16 | `O=C(NCc1ccncc1)N(Cc1ccccc1F)C1CC1` | -1.424 | -2.075 | 7.505 | -24.8 |
| 17 | `O=C(O)C(F)(F)F.[H][C@@]12CN(CC)C[C@]1(C(=O)N(C)C)CCC21CCN(C(C)=O)CC1` | - | - | 20.72 | - |
| 18 | `O=C(c1ccc[nH]1)N1CCC(c2nccn2Cc2ccncc2)CC1` | 2.237 | 2.479 | 2.219 | -10.6 |
| 19 | `[H][C@@]12C[C@@H](OCc3cccnc3)CN1CCN(C(=O)c1ccsc1)C2` | - | - | -4.206 | - |
| 20 | `[H][C@]12CCN(C(=O)C3CCOC3)C[C@@]1([H])OCCN(S(C)(=O)=O)C2` (stereo partly shown) | - | - | 29.21 | - |
| 21 | `Cn1cnc2c1C(COCC1CC1)CN(C(=O)Cc1ccsc1)C2` (stereo not shown) | -1.141 | 3.261 | - | -13.84 |
| 22 | `O=C1CCC(C(=O)Nc2cnn(-c3ccccc3Br)c2)N1` (stereo not shown) | -1.035 | 5.288 | 1.143 | 1.104 |
| 23 | `CNC(=O)CCS(=O)(=O)Cc1coc(-c2ccc(F)cc2)n1` | 0.6042 | 7.179 | 5.778 | -12.27 |
| 24 | `CC(NC1(CNS(C)(=O)=O)CCOCC1)c1ccccc1` (stereo not shown) | 6.731 | 0 | 19.97 | -28.34 |
| 25 | `CCOCC(=O)N1CCOCC2(CCN(c3ncccn3)C2)C1` (stereo not shown) | 1.343 | 5.607 | - | -27.33 |
| 26 | `Cc1nc(COC[C@H]2CCC[C@@]23CN(C(C)C)CCO3)cs1` | 6.274 | 14.29 | - | -2.816 |
| 27 | `O=C(Cn1c(=O)oc2ccccc21)NCC1(O)CCc2ccccc2C1` (stereo not shown) | 2.32 | 1.212 | 31.83 | -8.084 |
| 28 | `CC(C)CN1CCN(C(=O)c2ccncc2F)Cc2cccnc21` | 7.568 | 4.878 | - | 12.04 |
| 29 | `Nc1cccc(C2CN(C(=O)CN3CCOCC3)CCO2)n1` (stereo not shown) | 1.177 | 10 | 19.67 | 2.894 |
| 30 | `[H][C@@]12CS(=O)(=O)C[C@]1([H])N(C(=O)NCC)CCN2Cc1ccc(CCC)o1` | - | - | 19.08 | - |
| 31 | `Cc1nc(-c2cccc(N3CCC(NC4CCOCC4)CC3)c2)cs1` | 5.179 | 2.532 | 22.64 | -21.53 |
| 32 | `COc1cccc(N2CCN(CCC(=O)NC3CCCCC3)CC2)c1` | 2.16 | 1 | 8.757 | -20.29 |
| 33 | `O=C(O)C(F)(F)F.O=C(O)C(F)(F)F.[H][C@@]12OCCN(CCOCC)[C@@]1([H])CC[C@H]2OCc1ccccn1` | - | - | 22.22 | - |
| 34 | `Cc1cc(C)cc(C(C(=O)O)N(C)CCCN2CCOCC2)c1` (stereo not shown) | -0.1358 | -2.273 | -4.787 | 3.054 |
| 35 | `CC1(C)[C@H]2CC=C(CN3CCCn4nc(C(=O)NCCO)cc4C3)[C@@H]1C2` | -0.0729 | -2.89 | - | -22.19 |
| 36 | `Cc1nc(COc2nc(C(C)C)no2)cs1` | -0.7386 | 0.6369 | -17.76 | -17.69 |
| 37 | `Cc1ncsc1CCN(C)C(=O)c1ccc(Cn2cnnn2)cc1` | 1.697 | 4.39 | -17.45 | 1.628 |
| 38 | `O=C1CCc2cc(NC(=O)N3CCCN(Cc4cccs4)CC3)ccc21` | 4.13 | 7.143 | 25.04 | -36.82 |
| 39 | `[H][C@@]12COC[C@]1(CNS(C)(=O)=O)CN(C(=O)N(C)C)C2` | - | - | 13.23 | - |
| 40 | `CCN(CC)C(=O)CSc1nc2nc(C)ccc2o1` | -0.01217 | 0 | 27.38 and 2.552 | 24.02 |
| 41 | `CCc1nnc2n1CCN(C(=O)c1cc3ccc(C)cc3[nH]1)C2` | 1.206 | 2.299 | -7.871 | -11.17 |
| 42 | `[H][C@@]12C[C@@H](c3nc(C)cs3)O[C@]1([H])CN(C(=O)c1cc(C)nn1CC)C2` | - | - | 9.922 | - |
| 43 | `O=C(O)C(F)(F)F.O=C(O)C(F)(F)F.O=C(O)C(F)(F)F.[H][C@@]12CN(Cc3ccncc3)C[C@]1([H])[C@@H](OC)CCN2Cc1c(C)noc1C` | - | - | 42.75 | - |
| 44 | `CC(C)NS(=O)(=O)c1cc(C(=O)O)cc(-c2ccccc2C#N)c1` | 5.417 | 1.163 | -8.061 | 15.7 |
| 45 | `Cc1ccc(C(=O)N2CCn3cc(CN(C)Cc4ccco4)nc3C2)o1` | -1.95 | 4.348 | - | -5.465 |
| 46 | `O=S(=O)(c1ccccc1)N1CCC2(CCCN2Cc2cccc(F)c2)C1` (stereo not shown) | 3.739 | 12.75 | 61.17 | -0.547 |
| 47 | `CCOCCCn1c(NC(=O)c2scnc2C)nc2ccccc21` | -1.542 | -0.7634 | 31.29 | 2.654 |
| 48 | `CCOCc1cnc2n1CCN(Cc1scnc1C)C2C` (stereo not shown) | 1.05 | 9.195 | - | -0.7418 |
| 49 | `O=S(=O)(C/C=C/c1ccccc1)Cc1nc(C2CC2)no1` | 5.333 | 2.703 | 19.64 | -26.73 |

For reference, 5 entries once more:

{"smiles": "COc1ccccc1N1CCN(C(=O)CSCC2CC2)C(C)C1", "stereo": "stereo not shown", "PfKRS1": -4.4, "TcHisRS": -9.662, "Leishmania in macrophages": -23.1, "Pks13 thioesterase": -9.599}
{"smiles": "[H][C@]12CCN(C(=O)C3CCOC3)C[C@@]1([H])OCCN(S(C)(=O)=O)C2", "stereo": "stereo partly shown", "Leishmania in macrophages": 29.21}
{"smiles": "O=C1CCC(C(=O)Nc2cnn(-c3ccccc3Br)c2)N1", "stereo": "stereo not shown", "PfKRS1": -1.035, "TcHisRS": 5.288, "Leishmania in macrophages": 1.143, "Pks13 thioesterase": 1.104}
{"smiles": "CC1(C)CCN(S(=O)(=O)N2CCCC(c3cccc(C(=O)O)c3)C2)CC1", "stereo": "stereo not shown", "PfKRS1": -2.102, "TcHisRS": -4.651, "Leishmania in macrophages": 13.52, "Pks13 thioesterase": -14.7}
{"smiles": "N#Cc1cccc(C(=O)N2C[C@H]3CC[C@@H]2CN(C(=O)C2CCC2)C3)c1", "PfKRS1": 1.213, "TcHisRS": -4.523, "Pks13 thioesterase": -6.173}

From ChEMBL document CHEMBL3988442, “University of Dundee, Small-Polar-MMV Screening Library” (2021).